Source: publication PMC8384837
Numbering of substitutions follows the chain as printed. The list shows a part of the results. For some of these results: At the low end of the ranking the order means little. For some of these results: The exact form of the protein is not confirmed.

Tests used:
Settings in all cases: yeast three-hybrid, YBZ-1, SC-Leu-His + 0.5 mM 3-AT, 4 days
[1] = biological target: T1, PUM1 PUF domain R1-QFR R2-VFQ R7-NPG S863Q + R864F + Q867R + N899V + Y900F + S1079N + N1080P + E1083G (UniProt Q14671)
T1 sequence: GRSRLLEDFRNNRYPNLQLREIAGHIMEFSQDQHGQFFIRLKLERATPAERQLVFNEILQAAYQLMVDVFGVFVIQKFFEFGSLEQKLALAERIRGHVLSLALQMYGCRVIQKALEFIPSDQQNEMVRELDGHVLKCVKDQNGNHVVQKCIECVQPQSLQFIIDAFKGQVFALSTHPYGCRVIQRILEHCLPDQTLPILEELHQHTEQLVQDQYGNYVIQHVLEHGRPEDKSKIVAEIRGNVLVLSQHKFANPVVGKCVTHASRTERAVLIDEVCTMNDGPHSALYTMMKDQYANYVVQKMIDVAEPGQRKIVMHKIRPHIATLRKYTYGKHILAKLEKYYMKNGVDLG

[2] = biological target: T2, PUM1 PUF domain R2-VFQ R3-THE R4-TFR N899V + Y900F + C935T + R936H + Q939E + N971T + H972F + Q975R (UniProt Q14671)
T2 sequence: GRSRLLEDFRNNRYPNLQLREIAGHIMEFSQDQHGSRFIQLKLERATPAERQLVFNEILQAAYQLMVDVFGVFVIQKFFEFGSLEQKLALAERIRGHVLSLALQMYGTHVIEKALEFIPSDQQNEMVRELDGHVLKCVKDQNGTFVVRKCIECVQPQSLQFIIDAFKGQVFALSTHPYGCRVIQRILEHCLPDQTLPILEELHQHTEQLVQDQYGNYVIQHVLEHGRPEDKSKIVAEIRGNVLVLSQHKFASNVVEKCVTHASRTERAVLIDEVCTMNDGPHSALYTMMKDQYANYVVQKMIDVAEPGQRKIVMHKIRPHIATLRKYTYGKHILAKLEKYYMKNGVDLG

[3] = biological target: T3, PUM1 PUF domain R3-THE R4-TFR C935T + R936H + Q939E + N971T + H972F + Q975R (UniProt Q14671)
T3 sequence: T2 sequence with V72N, F73Y

[4] = biological target: T4, PUM1 PUF domain R3-THE R4-TFR R7-NPG C935T + R936H + Q939E + N971T + H972F + Q975R + S1079N + N1080P + E1083G (UniProt Q14671)
T4 sequence: T2 sequence with V72N, F73Y, S252N, N253P, E256G

[5] = biological target: T5, PUM1 PUF domain R5-PHQ R6-SWD C1007P + R1008H + N1043S + Y1044W + Q1047D (UniProt Q14671)
T5 sequence: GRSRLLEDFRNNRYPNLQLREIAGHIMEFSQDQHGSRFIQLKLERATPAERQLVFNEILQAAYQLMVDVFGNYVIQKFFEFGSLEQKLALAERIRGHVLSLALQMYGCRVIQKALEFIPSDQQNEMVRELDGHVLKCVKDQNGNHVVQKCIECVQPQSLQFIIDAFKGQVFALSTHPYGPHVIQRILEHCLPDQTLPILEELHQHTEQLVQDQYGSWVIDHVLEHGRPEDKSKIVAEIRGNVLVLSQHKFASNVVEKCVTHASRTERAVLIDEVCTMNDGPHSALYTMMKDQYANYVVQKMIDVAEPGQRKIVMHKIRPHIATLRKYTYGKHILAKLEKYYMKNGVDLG

[6] = biological target: T6, PUM1 PUF domain R3-THE R4-TFR R7-NPG C935T + R936H + Q939E + N971T + H972F + Q975R + S1079N + N1080P + E1083G (Homo sapiens) (UniProt Q14671)
T6 sequence: T2 sequence with V72N, F73Y, S252N, N253P, E256G

[7] = biological target: T7, PUM1 PUF domain R6-SWD R7-NPG N1043S + Y1044W + Q1047D + S1079N + N1080P + E1083G (Homo sapiens) (UniProt Q14671)
T7 sequence: T5 sequence with P180C, H181R, S252N, N253P, E256G

[8] = biological target: T8, PUM1 PUF domain R6-SWD R7-NPG N1043S + Y1044W + Q1047D + S1079N + N1080P + E1083G (UniProt Q14671)
T8 sequence: T5 sequence with P180C, H181R, S252N, N253P, E256G

| Sequence | binding signal (log2 enrichment (interaction score)) [1] | binding signal (log2 enrichment (interaction score)) [2] | binding signal (log2 enrichment (interaction score)) [3] | binding signal (log2 enrichment (interaction score)) [4] | binding signal (log2 enrichment (interaction score)) [5] | binding signal (log2 enrichment (interaction score)) [6] | binding signal (log2 enrichment (interaction score)) [7] | binding signal (log2 enrichment (interaction score)) [8] |
| --- | --- | --- | --- | --- | --- | --- | --- | --- |
| GGCUAGAACUAGUGGAUCCCCCGGCGCCCGGCGGCUCGAGCCCGGGUAAGUAUAAGUAGUCUGCAUGCCGCCGGGCGCCAUGCCUGCAGGUCGACUCUAGAAAACAUG | -5.96 | -5.47 | -6.77 | -3.85 | -7.86 |  |  |  |
| GGCUAGAACUAGUGGAUCCCCCGGCGCCCGGCGGCUCGAGCCCGGGUAAGUUGGCGUAGUCUGCAUGCCGCCGGGCGCCAUGCCUGCAGGUCGACUCUAGAAAACAUG | -6.12 | -5.55 | -7.11 |  | -7.11 | -1.69 | -0.37 |  |
| GGCUAGAACUAGUGGAUCCCCCGGCGCCCGGCGGCUCGAGCCCGGGUAAGUUUAAGGAGUCUGCAUGCCGCCGGGCGCCAUGCCUGCAGGUCGACUCUAGAAAACAUG | -5.79 | -6.18 | -7.07 |  | -7.95 | < -1.14 | -1.29 |  |
| GGCUAGAACUAGUGGAUCCCCCGGCGCCCGGCGGCUCGAGCCCGGGUAAGUCUAAAUCGUCUGCAUGCCGCCGGGCGCCAUGCCUGCAGGUCGACUCUAGAAAACAUG | -6.21 | -5.73 | -4.9 |  | -9.76 | -1.42 | -1.58 |  |
| GGCUAGAACUAGUGGAUCCCCCGGCGCCCGGCGGCUCGAGCCCGGGUAAGUCGCUGUAGUCUGCAUGCCGCCGGGCGCCAUGCCUGCAGGUCGACUCUAGAAAACAUG | -6.42 | -5.39 | -7.04 | -3.32 | -8.06 |  |  |  |
| GGCUAGAACUAGUGGAUCCCCCGGCGCCCGGCGGCUCGAGCCCGGGUAAGUCGUAUUAGUCUGCAUGCCGCCGGGCGCCAUGCCUGCAGGUCGACUCUAGAAAACAUG | -5.84 | -5.46 | -7.06 | -2.14 | < -8.12 |  |  |  |
| GGCUAGAACUAGUGGAUCCCCCGGCGCCCGGCGGCUCGAGCCCGGGUAAGUUUAAAGAGUCUGCAUGCCGCCGGGCGCCAUGCCUGCAGGUCGACUCUAGAAAACAUG | -6.52 | -5.21 | -6.86 | -2.36 | < -7.47 |  |  |  |
| GGCUAGAACUAGUGGAUCCCCCGGCGCCCGGCGGCUCGAGCCCGGGUAAGAGGAGGUAGUCUGCAUGCCGCCGGGCGCCAUGCCUGCAGGUCGACUCUAGAAAACAUG | -5.53 | -5.25 | -7.23 |  | -7.55 |  |  |  |
| GGCUAGAACUAGUGGAUCCCCCGGCGCCCGGCGGCUCGAGCCCGGGUAAGUGUAAGUGGUCUGCAUGCCGCCGGGCGCCAUGCCUGCAGGUCGACUCUAGAAAACAUG | -2.66 | < -6.02 | -6.27 | -3.07 | < -7.69 |  |  |  |
| GGCUAGAACUAGUGGAUCCCCCGGCGCCCGGCGGCUCGAGCCCGGGUAAGUUGACAAAGUCUGCAUGCCGCCGGGCGCCAUGCCUGCAGGUCGACUCUAGAAAACAUG | -4.9 | -5.59 | -7.16 | -2.67 | < -8.91 |  | -0.45 |  |
| GGCUAGAACUAGUGGAUCCCCCGGCGCCCGGCGGCUCGAGCCCGGGUAAGUUUAGAUAGUCUGCAUGCCGCCGGGCGCCAUGCCUGCAGGUCGACUCUAGAAAACAUG | < -6.74 | -5.59 | < -6.78 |  | -8.38 | < -1.27 |  | -2.39 |
| GGCUAGAACUAGUGGAUCCCCCGGCGCCCGGCGGCUCGAGCCCGGGUAAGGGGAAAUCGUCUGCAUGCCGCCGGGCGCCAUGCCUGCAGGUCGACUCUAGAAAACAUG | -6.5 | -3.59 | -7.55 |  | -8.44 |  |  |  |
| GGCUAGAACUAGUGGAUCCCCCGGCGCCCGGCGGCUCGAGCCCGGGUAAGUUGAAAUAGUCUGCAUGCCGCCGGGCGCCAUGCCUGCAGGUCGACUCUAGAAAACAUG | -4.99 | -5.66 | -6.8 | -2.67 | -4.96 |  |  |  |
| GGCUAGAACUAGUGGAUCCCCCGGCGCCCGGCGGCUCGAGCCCGGGUAAGUUGAGGUCGUCUGCAUGCCGCCGGGCGCCAUGCCUGCAGGUCGACUCUAGAAAACAUG | -6.16 | -5.38 | -7.83 | -3.8 | -7.93 |  |  |  |
| GGCUAGAACUAGUGGAUCCCCCGGCGCCCGGCGGCUCGAGCCCGGGUAAGUGGACGUCGUCUGCAUGCCGCCGGGCGCCAUGCCUGCAGGUCGACUCUAGAAAACAUG | -5.83 | -5.4 | -7.15 |  | -8.12 | -1.85 | -1.86 |  |
| GGCUAGAACUAGUGGAUCCCCCGGCGCCCGGCGGCUCGAGCCCGGGUAAGUUUAAGAGGUCUGCAUGCCGCCGGGCGCCAUGCCUGCAGGUCGACUCUAGAAAACAUG | -6.77 | -6.5 |  |  |  | -1.6 |  |  |
| GGCUAGAACUAGUGGAUCCCCCGGCGCCCGGCGGCUCGAGCCCGGGUAAGCUUAAAUAGUCUGCAUGCCGCCGGGCGCCAUGCCUGCAGGUCGACUCUAGAAAACAUG | -5.85 | -5.34 | -6.94 |  | < -8.32 |  | -1.1 |  |
| GGCUAGAACUAGUGGAUCCCCCGGCGCCCGGCGGCUCGAGCCCGGGUAAGAUUCCGAAGUCUGCAUGCCGCCGGGCGCCAUGCCUGCAGGUCGACUCUAGAAAACAUG | -2.59 | -4.43 | < -7.29 |  |  |  | -1.7 |  |
| GGCUAGAACUAGUGGAUCCCCCGGCGCCCGGCGGCUCGAGCCCGGGUAAGUGGAACUAGUCUGCAUGCCGCCGGGCGCCAUGCCUGCAGGUCGACUCUAGAAAACAUG | -6.15 | -5.24 | -6.29 |  | -7.48 |  | -1.16 |  |
| GGCUAGAACUAGUGGAUCCCCCGGCGCCCGGCGGCUCGAGCCCGGGUAAGUAUCUAUAGUCUGCAUGCCGCCGGGCGCCAUGCCUGCAGGUCGACUCUAGAAAACAUG | < -6.06 | -5.12 | -7.26 |  | < -8.22 |  | -0.44 |  |
| GGCUAGAACUAGUGGAUCCCCCGGCGCCCGGCGGCUCGAGCCCGGGUAAGUUGAUGGAGUCUGCAUGCCGCCGGGCGCCAUGCCUGCAGGUCGACUCUAGAAAACAUG | -6.18 | -5.81 | -7.3 |  | -8.43 |  |  |  |
| GGCUAGAACUAGUGGAUCCCCCGGCGCCCGGCGGCUCGAGCCCGGGUAAGUGGAAACUGUCUGCAUGCCGCCGGGCGCCAUGCCUGCAGGUCGACUCUAGAAAACAUG | -6.29 | -5.65 | -6.55 |  | -7.64 |  |  |  |
| GGCUAGAACUAGUGGAUCCCCCGGCGCCCGGCGGCUCGAGCCCGGGUAAGUUUAAGUAGUCUGCAUGCCGCCGGGCGCCAUGCCUGCAGGUCGACUCUAGAAAACAUG | -5.59 | -5.31 | -6.64 |  | -8.65 |  | -1.28 |  |
| GGCUAGAACUAGUGGAUCCCCCGGCGCCCGGCGGCUCGAGCCCGGGUAAGAUUAAGCAGUCUGCAUGCCGCCGGGCGCCAUGCCUGCAGGUCGACUCUAGAAAACAUG | < -6.5 | -5.83 | < -6.89 |  | < -7.67 |  |  |  |

Quoted from the listing for reference:

| Sequence | binding signal (log2 enrichment (interaction score)) [1] | binding signal (log2 enrichment (interaction score)) [2] | binding signal (log2 enrichment (interaction score)) [3] | binding signal (log2 enrichment (interaction score)) [4] | binding signal (log2 enrichment (interaction score)) [5] | binding signal (log2 enrichment (interaction score)) [6] | binding signal (log2 enrichment (interaction score)) [7] | binding signal (log2 enrichment (interaction score)) [8] |
| --- | --- | --- | --- | --- | --- | --- | --- | --- |
| GGCUAGAACUAGUGGAUCCCCCGGCGCCCGGCGGCUCGAGCCCGGGUAAGUUGGCGUAGUCUGCAUGCCGCCGGGCGCCAUGCCUGCAGGUCGACUCUAGAAAACAUG | -6.12 | -5.55 | -7.11 |  | -7.11 | -1.69 | -0.37 |  |
| GGCUAGAACUAGUGGAUCCCCCGGCGCCCGGCGGCUCGAGCCCGGGUAAGUUUAAGGAGUCUGCAUGCCGCCGGGCGCCAUGCCUGCAGGUCGACUCUAGAAAACAUG | -5.79 | -6.18 | -7.07 |  | -7.95 | < -1.14 | -1.29 |  |
| GGCUAGAACUAGUGGAUCCCCCGGCGCCCGGCGGCUCGAGCCCGGGUAAGUCUAAAUCGUCUGCAUGCCGCCGGGCGCCAUGCCUGCAGGUCGACUCUAGAAAACAUG | -6.21 | -5.73 | -4.9 |  | -9.76 | -1.42 | -1.58 |  |
| GGCUAGAACUAGUGGAUCCCCCGGCGCCCGGCGGCUCGAGCCCGGGUAAGUCGCUGUAGUCUGCAUGCCGCCGGGCGCCAUGCCUGCAGGUCGACUCUAGAAAACAUG | -6.42 | -5.39 | -7.04 | -3.32 | -8.06 |  |  |  |
| GGCUAGAACUAGUGGAUCCCCCGGCGCCCGGCGGCUCGAGCCCGGGUAAGUCGUAUUAGUCUGCAUGCCGCCGGGCGCCAUGCCUGCAGGUCGACUCUAGAAAACAUG | -5.84 | -5.46 | -7.06 | -2.14 | < -8.12 |  |  |  |
| GGCUAGAACUAGUGGAUCCCCCGGCGCCCGGCGGCUCGAGCCCGGGUAAGUUUAAAGAGUCUGCAUGCCGCCGGGCGCCAUGCCUGCAGGUCGACUCUAGAAAACAUG | -6.52 | -5.21 | -6.86 | -2.36 | < -7.47 |  |  |  |
